Laboratory results: the supplement of paper PMC6411743
± gives the standard deviation of the averaged measurements. The list shows a part of the results, in another mix than the full data.

The chains behind the UniProt entries cited, without tags or fusion partners. Where a name states a change or a piece, a line headed by the entry shows the natural chain unless it says otherwise.
UniProt Q8NI22: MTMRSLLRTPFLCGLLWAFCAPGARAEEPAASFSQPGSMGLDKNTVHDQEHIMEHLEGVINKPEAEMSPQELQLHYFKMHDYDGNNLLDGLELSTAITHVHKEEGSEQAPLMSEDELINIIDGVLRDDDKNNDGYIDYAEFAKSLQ
UniProt Q8TAP8: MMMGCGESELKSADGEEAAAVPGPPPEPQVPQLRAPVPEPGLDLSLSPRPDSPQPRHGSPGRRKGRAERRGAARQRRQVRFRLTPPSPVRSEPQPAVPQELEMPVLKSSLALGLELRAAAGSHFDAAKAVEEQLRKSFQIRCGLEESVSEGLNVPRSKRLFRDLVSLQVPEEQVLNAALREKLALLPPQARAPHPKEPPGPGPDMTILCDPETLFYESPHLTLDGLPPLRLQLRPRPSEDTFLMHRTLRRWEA
UniProt Q8WY91: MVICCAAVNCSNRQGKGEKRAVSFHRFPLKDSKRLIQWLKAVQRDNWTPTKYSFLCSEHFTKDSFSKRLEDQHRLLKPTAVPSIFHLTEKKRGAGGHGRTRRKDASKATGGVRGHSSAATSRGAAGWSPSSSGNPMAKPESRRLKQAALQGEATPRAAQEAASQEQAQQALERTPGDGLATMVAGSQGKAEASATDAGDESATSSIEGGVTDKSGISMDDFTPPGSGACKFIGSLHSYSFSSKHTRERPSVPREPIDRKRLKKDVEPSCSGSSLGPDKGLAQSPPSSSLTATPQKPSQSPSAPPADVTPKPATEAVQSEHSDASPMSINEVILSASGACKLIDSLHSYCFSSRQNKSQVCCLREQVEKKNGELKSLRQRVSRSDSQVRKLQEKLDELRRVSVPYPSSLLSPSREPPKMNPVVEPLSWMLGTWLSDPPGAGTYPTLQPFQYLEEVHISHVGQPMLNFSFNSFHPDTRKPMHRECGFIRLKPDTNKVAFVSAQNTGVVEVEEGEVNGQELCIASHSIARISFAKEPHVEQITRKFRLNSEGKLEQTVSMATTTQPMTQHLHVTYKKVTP
UniProt Q8WU79: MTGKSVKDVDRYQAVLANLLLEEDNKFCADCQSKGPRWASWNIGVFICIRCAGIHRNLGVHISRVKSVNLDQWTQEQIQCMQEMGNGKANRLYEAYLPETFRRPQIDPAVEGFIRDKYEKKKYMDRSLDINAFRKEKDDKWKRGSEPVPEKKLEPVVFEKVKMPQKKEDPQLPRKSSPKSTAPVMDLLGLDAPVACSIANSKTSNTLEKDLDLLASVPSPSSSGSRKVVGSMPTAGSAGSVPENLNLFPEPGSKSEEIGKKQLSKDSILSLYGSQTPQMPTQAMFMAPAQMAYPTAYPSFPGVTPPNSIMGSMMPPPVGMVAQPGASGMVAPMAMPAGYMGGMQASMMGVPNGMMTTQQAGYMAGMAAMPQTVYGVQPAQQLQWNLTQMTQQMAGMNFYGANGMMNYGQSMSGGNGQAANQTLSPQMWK
UniProt Q92547, whole entry: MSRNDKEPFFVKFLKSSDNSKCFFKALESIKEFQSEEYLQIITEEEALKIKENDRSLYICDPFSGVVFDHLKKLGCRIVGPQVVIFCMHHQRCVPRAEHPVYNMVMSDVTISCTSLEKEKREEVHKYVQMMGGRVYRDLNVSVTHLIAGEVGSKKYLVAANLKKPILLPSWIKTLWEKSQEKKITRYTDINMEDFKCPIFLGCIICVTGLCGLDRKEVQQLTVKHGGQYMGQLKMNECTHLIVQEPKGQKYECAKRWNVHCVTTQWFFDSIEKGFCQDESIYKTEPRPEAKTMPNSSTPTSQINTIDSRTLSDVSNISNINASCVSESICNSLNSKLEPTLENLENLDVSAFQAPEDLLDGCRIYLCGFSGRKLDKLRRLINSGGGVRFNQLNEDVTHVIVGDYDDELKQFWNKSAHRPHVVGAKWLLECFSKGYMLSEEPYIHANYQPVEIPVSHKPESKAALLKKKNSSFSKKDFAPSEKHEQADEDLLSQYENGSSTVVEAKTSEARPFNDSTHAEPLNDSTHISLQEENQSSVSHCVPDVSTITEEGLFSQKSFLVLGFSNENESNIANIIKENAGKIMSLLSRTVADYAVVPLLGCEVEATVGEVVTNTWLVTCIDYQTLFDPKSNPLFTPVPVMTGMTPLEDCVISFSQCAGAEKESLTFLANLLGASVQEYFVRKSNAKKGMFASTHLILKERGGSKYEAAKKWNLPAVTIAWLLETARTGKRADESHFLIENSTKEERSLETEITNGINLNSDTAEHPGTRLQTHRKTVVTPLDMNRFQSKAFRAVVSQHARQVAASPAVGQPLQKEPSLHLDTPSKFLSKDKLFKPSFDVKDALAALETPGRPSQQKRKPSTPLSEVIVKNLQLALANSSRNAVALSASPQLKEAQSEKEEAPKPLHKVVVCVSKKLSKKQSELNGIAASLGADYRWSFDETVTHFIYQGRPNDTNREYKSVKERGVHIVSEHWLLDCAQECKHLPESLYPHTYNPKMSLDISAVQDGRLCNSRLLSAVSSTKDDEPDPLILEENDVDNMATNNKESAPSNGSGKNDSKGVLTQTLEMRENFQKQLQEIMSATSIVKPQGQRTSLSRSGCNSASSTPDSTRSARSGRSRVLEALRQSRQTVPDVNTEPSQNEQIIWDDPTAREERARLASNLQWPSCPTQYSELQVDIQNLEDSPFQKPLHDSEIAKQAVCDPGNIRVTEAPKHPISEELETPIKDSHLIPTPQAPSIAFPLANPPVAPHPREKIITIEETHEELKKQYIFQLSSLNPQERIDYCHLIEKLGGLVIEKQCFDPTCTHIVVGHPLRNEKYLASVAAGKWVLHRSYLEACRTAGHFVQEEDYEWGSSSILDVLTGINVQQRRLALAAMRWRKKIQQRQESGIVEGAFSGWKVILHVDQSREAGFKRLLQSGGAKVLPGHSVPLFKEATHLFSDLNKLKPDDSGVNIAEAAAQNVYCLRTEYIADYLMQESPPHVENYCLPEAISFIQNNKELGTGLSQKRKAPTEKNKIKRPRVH
UniProt Q8NHY2, whole entry: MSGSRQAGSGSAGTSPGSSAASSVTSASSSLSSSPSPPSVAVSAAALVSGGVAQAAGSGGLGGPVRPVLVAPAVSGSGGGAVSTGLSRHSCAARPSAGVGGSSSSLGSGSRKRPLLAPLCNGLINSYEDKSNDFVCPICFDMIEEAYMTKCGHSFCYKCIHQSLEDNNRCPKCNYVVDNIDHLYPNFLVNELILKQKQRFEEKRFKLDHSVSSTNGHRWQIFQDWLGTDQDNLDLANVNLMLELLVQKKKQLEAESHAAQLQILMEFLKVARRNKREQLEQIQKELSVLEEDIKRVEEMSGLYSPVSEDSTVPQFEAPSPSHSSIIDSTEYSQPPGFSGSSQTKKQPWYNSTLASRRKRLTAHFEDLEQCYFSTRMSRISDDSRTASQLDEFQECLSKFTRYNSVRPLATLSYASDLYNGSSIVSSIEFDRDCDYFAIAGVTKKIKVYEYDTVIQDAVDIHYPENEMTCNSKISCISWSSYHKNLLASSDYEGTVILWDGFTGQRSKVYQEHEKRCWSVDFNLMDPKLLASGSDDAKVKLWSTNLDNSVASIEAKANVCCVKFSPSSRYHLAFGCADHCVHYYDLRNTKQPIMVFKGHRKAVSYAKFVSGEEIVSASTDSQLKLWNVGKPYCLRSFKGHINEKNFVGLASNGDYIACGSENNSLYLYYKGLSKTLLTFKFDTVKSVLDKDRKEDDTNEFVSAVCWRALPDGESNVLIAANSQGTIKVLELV
UniProt Q8NEJ9: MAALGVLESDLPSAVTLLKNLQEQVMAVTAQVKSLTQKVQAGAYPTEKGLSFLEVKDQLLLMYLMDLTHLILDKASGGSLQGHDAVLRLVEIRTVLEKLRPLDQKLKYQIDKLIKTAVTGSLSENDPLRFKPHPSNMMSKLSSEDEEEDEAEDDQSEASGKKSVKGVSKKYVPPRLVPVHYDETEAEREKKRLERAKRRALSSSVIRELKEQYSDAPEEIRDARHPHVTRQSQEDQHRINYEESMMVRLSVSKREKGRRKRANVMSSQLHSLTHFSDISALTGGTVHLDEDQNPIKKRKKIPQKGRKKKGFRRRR
UniProt Q8TDN6: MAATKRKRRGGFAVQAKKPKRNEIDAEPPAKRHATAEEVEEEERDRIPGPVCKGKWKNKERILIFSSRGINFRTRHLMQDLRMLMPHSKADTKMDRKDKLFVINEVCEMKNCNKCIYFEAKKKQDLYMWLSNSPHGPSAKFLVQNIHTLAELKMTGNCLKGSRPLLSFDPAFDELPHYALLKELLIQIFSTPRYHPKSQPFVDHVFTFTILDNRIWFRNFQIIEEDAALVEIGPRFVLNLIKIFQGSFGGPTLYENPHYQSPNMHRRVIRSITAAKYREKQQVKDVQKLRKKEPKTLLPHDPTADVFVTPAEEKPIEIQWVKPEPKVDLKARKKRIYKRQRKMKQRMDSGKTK
UniProt Q92609: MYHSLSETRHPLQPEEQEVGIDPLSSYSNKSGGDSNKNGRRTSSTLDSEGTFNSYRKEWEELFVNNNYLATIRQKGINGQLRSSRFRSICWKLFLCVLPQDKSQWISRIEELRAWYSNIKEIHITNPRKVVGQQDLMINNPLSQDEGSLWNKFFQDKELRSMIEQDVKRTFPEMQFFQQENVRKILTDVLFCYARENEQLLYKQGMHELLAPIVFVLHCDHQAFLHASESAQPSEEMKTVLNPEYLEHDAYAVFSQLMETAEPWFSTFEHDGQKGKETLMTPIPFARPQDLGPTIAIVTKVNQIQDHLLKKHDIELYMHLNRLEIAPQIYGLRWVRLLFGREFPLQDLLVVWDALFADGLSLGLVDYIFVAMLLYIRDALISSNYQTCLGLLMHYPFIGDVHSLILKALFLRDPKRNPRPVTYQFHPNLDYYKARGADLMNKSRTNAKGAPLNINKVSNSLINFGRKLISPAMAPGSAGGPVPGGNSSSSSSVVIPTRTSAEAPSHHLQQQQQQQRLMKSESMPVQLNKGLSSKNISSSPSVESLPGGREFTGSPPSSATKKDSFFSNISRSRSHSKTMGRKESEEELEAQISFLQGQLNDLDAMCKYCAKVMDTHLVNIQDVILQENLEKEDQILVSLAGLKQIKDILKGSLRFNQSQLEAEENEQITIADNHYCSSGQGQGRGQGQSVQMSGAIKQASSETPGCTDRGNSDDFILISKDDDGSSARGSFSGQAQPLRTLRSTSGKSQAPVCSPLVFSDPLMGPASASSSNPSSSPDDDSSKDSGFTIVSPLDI
UniProt Q92615, whole entry: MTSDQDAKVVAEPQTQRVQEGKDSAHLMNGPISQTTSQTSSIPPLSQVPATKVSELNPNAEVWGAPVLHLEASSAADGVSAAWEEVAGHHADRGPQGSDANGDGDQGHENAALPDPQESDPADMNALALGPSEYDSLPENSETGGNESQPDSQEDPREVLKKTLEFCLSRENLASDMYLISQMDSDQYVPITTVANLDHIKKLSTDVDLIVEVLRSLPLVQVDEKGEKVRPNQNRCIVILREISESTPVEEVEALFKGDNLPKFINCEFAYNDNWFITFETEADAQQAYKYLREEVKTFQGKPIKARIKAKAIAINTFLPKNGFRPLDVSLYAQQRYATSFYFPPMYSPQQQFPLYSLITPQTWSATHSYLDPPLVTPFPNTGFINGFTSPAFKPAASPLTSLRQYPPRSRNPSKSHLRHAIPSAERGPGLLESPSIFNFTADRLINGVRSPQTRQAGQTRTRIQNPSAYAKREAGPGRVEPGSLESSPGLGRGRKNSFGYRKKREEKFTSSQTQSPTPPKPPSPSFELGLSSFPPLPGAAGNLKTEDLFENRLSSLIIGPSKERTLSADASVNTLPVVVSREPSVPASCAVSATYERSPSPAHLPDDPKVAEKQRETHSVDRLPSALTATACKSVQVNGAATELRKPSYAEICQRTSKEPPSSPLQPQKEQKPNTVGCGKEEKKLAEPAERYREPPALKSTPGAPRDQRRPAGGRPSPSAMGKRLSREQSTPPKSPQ
UniProt Q8NEC7: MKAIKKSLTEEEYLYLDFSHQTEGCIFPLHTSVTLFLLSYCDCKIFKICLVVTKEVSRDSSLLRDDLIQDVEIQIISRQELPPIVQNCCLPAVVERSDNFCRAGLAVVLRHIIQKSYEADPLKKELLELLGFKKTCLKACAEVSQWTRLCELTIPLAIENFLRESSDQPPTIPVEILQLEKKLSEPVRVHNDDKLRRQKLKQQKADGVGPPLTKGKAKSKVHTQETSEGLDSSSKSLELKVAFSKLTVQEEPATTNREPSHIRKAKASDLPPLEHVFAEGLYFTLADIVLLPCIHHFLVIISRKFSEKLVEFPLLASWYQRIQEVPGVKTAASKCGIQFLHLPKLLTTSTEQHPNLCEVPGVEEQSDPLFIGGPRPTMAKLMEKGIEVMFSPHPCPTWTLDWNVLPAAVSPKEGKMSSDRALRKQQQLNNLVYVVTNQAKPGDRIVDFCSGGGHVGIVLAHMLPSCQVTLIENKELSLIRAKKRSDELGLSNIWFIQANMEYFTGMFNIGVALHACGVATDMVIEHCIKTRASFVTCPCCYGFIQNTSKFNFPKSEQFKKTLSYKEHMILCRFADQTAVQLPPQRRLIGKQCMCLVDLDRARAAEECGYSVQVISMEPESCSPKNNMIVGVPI

Compound: Nc1ncnc2c1ncn2[C@@H]1O[C@H](COP(=O)(O)OP(=O)(O)NP(=O)(O)O)[C@@H](O)[C@H]1O [adenylyl imidodiphosphate]
Assay: NP40-soluble protein abundance relative to vehicle (solubility fold change) (ratio); higher = more soluble protein in presence of AMP-PNP
How it was run: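 Across three independent experiments, values are fold changes against the detergent-processed vehicle for each replicate, based on vsn-normalised intensities. The samples were Jurkat crude lysate treated with eight concentrations (0.1 to 10 mM) for 10 min at room temperature and then 3 min at 37 °C. Lysate was solubilised with 0.8% NP40 and benzonase, ultracentrifuged, and the supernatant analysed by TMT-labelled LC-MS/MS.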

Target | NP40-soluble protein abundance (concentration: 1mM) | NP40-soluble protein abundance (concentration: 2mM) | NP40-soluble protein abundance (concentration: 4mM) | NP40-soluble protein abundance (concentration: 6mM) | NP40-soluble protein abundance (concentration: 8mM) | NP40-soluble protein abundance (concentration: 10mM)
UniProt Q8TDD1 and related entries | 1.035 ± 0.0098 | 1.05 ± 0.021 | 1.09 ± 0.041 | 1.15 ± 0.04 | 1.16 ± 0.059 | 1.25 ± 0.053
NT5C (UniProt Q8TCD5) | 0.968 ± 0.031 | 0.93 ± 0.015 | 0.932 ± 0.021 | 0.977 ± 0.093 | 1.04 ± 0.09 | 0.986 ± 0.049
UniProt Q8NI22 and related entries | 1.02 ± 0.035 | 1.02 ± 0.019 | 0.985 ± 0.034 | 0.998 ± 0.011 | 1.002 ± 0.01 | 0.986 ± 0.013
UniProt Q8TB61 and related entries | 0.968 ± 0.041 | 0.969 ± 0.045 | 0.965 ± 0.045 | 0.953 ± 0.034 | 0.951 ± 0.042 | 0.989 ± 0.019
PPP1R35 (UniProt Q8TAP8) | 0.984 ± 0.022 | 0.966 ± 0.023 | 0.9877 ± 0.0089 | 1.005 ± 0.0022 | 0.983 ± 0.027 | 0.9861 ± 0.0011
UniProt Q8TF46 and related entries | 1.02 ± 0.038 | 1.01 ± 0.055 | 1.04 ± 0.068 | 0.994 ± 0.043 | 1.03 ± 0.046 | 1.05 ± 0.013
PHIP (UniProt Q8WWQ0) | 1.03 ± 0.019 | 1.05 ± 0.016 | 1.05 ± 0.061 | 1.06 ± 0.075 | 1.04 ± 0.034 | 1.06 ± 0.077
PMM1 (UniProt Q92871) | 1.02 ± 0.014 | 0.955 ± 0.066 | 1.01 ± 0.017 | 1 ± 0.018 | 1.01 ± 0.024 | 0.997 ± 0.035
THAP4 (UniProt Q8WY91) | 0.9738 ± 0.0091 | 0.981 ± 0.032 | 0.9413 ± 0.0054 | 0.937 ± 0.017 | 0.97311 ± 0.00095 | 0.923 ± 0.019
UniProt Q8WU79 and related entries | 1.03 ± 0.02 | 1.04 ± 0.029 | 0.984 ± 0.029 | 1 ± 0.027 | 0.964 ± 0.029 | 0.969 ± 0.055
SCCPDH (UniProt Q8NBX0) | 0.967 ± 0.03 | 0.887 ± 0.12 | 0.936 ± 0.04 | 0.952 ± 0.018 | 0.955 ± 0.024 | 0.9433 ± 0.0093
TOPBP1 (UniProt Q92547) | 0.9859 ± 0.0039 | 1 ± 0.031 | 1.05 ± 0.033 | 1.01 ± 0.013 | 1.0187 ± 0.00086 | 1.03 ± 0.045
CADM4 (UniProt Q8NFZ8) | 0.99 ± 0.018 | 1.02 ± 0.028 | 1 ± 0.02 | 1.01 ± 0.011 | 0.9952 ± 0.0084 | 0.993 ± 0.011
UniProt Q8TCB7 and related entries | 0.989 ± 0.012 | 0.993 ± 0.019 | 0.9941 ± 0.0093 | 1.01 ± 0.019 | 1.01 ± 0.009 | 1.04 ± 0.028
TTL (UniProt Q8NG68) | 1.0715 ± 0.00069 | 1.03 ± 0.036 | 1.08 ± 0.056 | 1.05 ± 0.014 | 1.05 ± 0.029 | 1.01 ± 0.054
UniProt Q8TAV0 and related entries | 1.05 ± 0.0049 | 1.04 ± 0.018 | 1.06 ± 0.068 | 1.06 ± 0.055 | 1.06 ± 0.064 | 1.03 ± 0.019
UniProt Q8NHY2 and related entries | 0.9844 ± 0.0098 | 0.9857 ± 0.0016 | 0.996 ± 0.016 | 0.977 ± 0.038 | 0.998 ± 0.031 | 0.987 ± 0.021
UniProt Q8NEJ9 and related entries | 1 ± 0.046 | 1 ± 0.01 | 1.005 ± 0.0025 | 1.01 ± 0.089 | 1.008 ± 0.0029 | 1 ± 0.02
NUP43 (UniProt Q8NFH3) | 1.02 ± 0.026 | 1 ± 0.076 | 1.05 ± 0.032 | 1.01 ± 0.015 | 1.03 ± 0.038 | 0.999 ± 0.024
UniProt Q8TDN6 | 1.045 ± 0.0023 | 1.044 ± 0.0043 | 1.1 ± 0.019 | 1.11 ± 0.026 | 1.16 ± 0.021 | 1.23 ± 0.049
DTX3L (UniProt Q8TDB6) | 1.03 ± 0.02 | 1.01 ± 0.024 | 1.04 ± 0.059 | 0.994 ± 0.03 | 0.996 ± 0.038 | 0.993 ± 0.022
UniProt Q92609 and related entries | 1.022 ± 0.01 | 1.06 ± 0.025 | 1.016 ± 0.01 | 0.972 ± 0.055 | 0.945 ± 0.03 | 0.976 ± 0.043
UniProt Q92615 | 1.04 ± 0.016 | 1.09 ± 0.029 | 1.12 ± 0.027 | 1.1 ± 0.051 | 1.12 ± 0.043 | 1.16 ± 0.055
UniProt Q92636 and related entries | 0.969 ± 0.041 | 0.909 ± 0.12 | 0.955 ± 0.07 | 0.982 ± 0.034 | 0.981 ± 0.057 | 0.976 ± 0.042
GSTCD (UniProt Q8NEC7) | 0.9928 ± 0.0054 | 0.988 ± 0.057 | 0.999 ± 0.029 | 0.992 ± 0.038 | 1.01 ± 0.019 | 1 ± 0.025
UniProt Q92600 and related entries | 0.963 ± 0.026 | 1.02 ± 0.057 | 1.03 ± 0.06 | 1.11 ± 0.053 | 1.14 ± 0.05 | 1.06 ± 0.086
UniProt Q8NCW5 | 0.989 ± 0.016 | 1.049 ± 0.0083 | 1.04 ± 0.037 | 0.996 ± 0.026 | 0.974 ± 0.034 | 0.977 ± 0.05
UniProt Q92796-3 | 1.04 ± 0.027 | 1.048 ± 0.0018 | 1.05 ± 0.013 | 1.03 ± 0.044 | 1.05 ± 0.028 | 1.04 ± 0.018
UniProt Q8NG08 and related entries | 0.995 ± 0.021 | 1.01 ± 0.03 | 1 ± 0.019 | 1.01 ± 0.043 | 1.02 ± 0.028 | 1.03 ± 0.019
LRRC8C (UniProt Q8TDW0) | 1.008 ± 0.0067 | 1 ± 0.013 | 0.997 ± 0.049 | 0.995 ± 0.03 | 1 ± 0.03 | 0.953 ± 0.031

A few values from the entries so far.
NP40-soluble protein abundance (concentration: 10mM), NT5C (UniProt Q8TCD5) is entered as 0.986 ± 0.049
NP40-soluble protein abundance (concentration: 10mM), UniProt Q8NEJ9 and related entries is entered as 1 ± 0.02
